Experiment [1] concerns the target Arabidopsis thaliana phytochrome B (1–651; WT), photosensory module with N-terminal extension, holo form with PCB (Arabidopsis thaliana) (UniProt P14713). Kind of experiment: native MS; nano-electrospray, Waters Synapt G2-S; buffer exchanged into 50 mM Tris pH 7.8, 5 mM EDTA, 1 mM β-mercaptoethanol at 4 °C directly before analysis; self-association tested; both purified.

The chains behind the UniProt entries cited, without tags or fusion partners. Where a name states a change or a piece, a line headed by the entry shows the natural chain unless it says otherwise.
UniProt P14713: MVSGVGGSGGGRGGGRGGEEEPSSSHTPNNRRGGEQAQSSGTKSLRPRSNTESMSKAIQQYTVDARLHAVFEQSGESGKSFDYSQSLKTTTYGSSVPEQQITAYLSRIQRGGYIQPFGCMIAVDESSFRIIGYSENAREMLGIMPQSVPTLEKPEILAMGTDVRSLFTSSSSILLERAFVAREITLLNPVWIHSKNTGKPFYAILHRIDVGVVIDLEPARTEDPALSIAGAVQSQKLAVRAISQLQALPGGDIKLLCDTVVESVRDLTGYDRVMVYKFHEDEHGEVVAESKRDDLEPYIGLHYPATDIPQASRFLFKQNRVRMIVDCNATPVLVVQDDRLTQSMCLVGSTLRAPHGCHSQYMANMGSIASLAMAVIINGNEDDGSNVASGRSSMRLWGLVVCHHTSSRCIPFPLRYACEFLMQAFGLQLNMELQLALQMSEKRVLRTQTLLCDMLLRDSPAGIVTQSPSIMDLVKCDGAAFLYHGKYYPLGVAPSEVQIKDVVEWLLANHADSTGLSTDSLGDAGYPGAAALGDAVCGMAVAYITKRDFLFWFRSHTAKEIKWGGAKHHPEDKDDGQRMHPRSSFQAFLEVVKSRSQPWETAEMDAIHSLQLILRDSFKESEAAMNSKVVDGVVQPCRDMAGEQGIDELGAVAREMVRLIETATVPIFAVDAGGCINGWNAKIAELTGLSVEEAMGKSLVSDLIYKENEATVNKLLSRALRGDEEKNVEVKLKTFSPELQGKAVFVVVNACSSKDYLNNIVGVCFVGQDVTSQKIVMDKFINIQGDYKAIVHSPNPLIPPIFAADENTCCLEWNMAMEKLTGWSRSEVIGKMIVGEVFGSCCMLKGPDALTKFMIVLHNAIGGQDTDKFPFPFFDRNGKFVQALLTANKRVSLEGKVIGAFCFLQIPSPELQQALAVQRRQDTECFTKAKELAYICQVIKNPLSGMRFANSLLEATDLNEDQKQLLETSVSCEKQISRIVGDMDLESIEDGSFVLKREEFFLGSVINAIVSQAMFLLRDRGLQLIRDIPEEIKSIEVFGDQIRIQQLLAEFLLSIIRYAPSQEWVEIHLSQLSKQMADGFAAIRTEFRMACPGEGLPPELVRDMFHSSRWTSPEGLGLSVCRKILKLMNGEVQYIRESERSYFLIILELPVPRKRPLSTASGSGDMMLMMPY

Experiment [2] shares this target. Kind of experiment: SEC; Superdex 200 26/60, 2 mL/min, 50 mM Tris pH 7.8, 5 mM EDTA, 100 mM NaCl, 1 mM β-mercaptoethanol; apparent against calculated mass; self-association tested; both purified.
Experiment [3] concerns the target Arabidopsis thaliana phytochrome B ΔNTE (90–651), lacking the N-terminal extension, holo form with PCB (Arabidopsis thaliana) (UniProt P14713). Kind of experiment: native MS; nano-electrospray, Waters Synapt G2-S; buffer exchanged into 50 mM Tris pH 7.8, 5 mM EDTA, 1 mM β-mercaptoethanol at 4 °C directly before analysis; self-association tested; both purified.
Experiment [4] has the same target. Kind of experiment: SEC; Superdex 200 26/60, 2 mL/min, 50 mM Tris pH 7.8, 5 mM EDTA, 100 mM NaCl, 1 mM β-mercaptoethanol; apparent against calculated mass; self-association tested; both purified.

Results are given in words; binding and its absence hold for the method and conditions named.

The source of these data is PMC5046071.

Regarding “Arabidopsis thaliana phytochrome B (1–651; WT), photosensory module with N-terminal extension, holo form with PCB (from UniProt P14713 1-651) (domain or fragment)”, the binding entry in experiment [1] and in experiment [2] was “no binding” in each case.

“Arabidopsis thaliana phytochrome B ΔNTE (90–651), lacking the N-terminal extension, holo form with PCB (from UniProt P14713 90-651) (domain or fragment)”: the binding entry in experiment [3] and in experiment [4] was “no binding” each time.
